Reference: PMC3232451 (Nature structural & molecular biology, 2011)

Molecular target: T1, His6-TBL1(1-90) (human, UniProt O60907-2 1-90)
T1 sequence (looked up): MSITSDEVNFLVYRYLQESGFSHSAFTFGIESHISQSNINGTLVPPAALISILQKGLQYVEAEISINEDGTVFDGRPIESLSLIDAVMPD
Test: fluorescence polarisation

B1: BODIPY labeled chimeric GPS2(1-49)–SMRT(220-260) (peptide, UniProt Q13227 1-49, looked up)
chain: MPALLERPKLSNAMARALHRHIMMERERKRQEEEEVDKMMEQKMKEEQEESKHRSLVQIIYDENRKKAEAAHRILEGLGPQVELPLYNQP
modifications: BODIPY label (position not given)
B1 gave a Kd of 950 nM.
